Experimental data as given in article PMC10188538.
These are yes or no findings as the source states them, for the method shown. In cells and extracts the contact can be indirect. Binding can be weak; no strength is given.

Target: bacterially expressed glutathione S-transferase (GST)-GEF-H1 (amino acid 623-684) (human)
Experiment: pull-down; bacterially expressed GST-GEF-H1 (amino acids 623-684) with cell free translated HUNK; only the target purified

- binding: binds
B1: cell free translated HUNK (enzyme, UniProt P57058 1-714)
chain: MPAAAGDGLLGEPAAPGGGGGAEDAARPAAACEGSFLPAWVSGVPRERLRDFQHHKRVGNYLIGSRKLGEGSFAKVREGLHVLTGEKVAIKVIDKKRAKKDTYVTKNLRREGQIQQMIRHPNITQLLDILETENSYYLVMELCPGGNLMHKIYEKKRLEESEARRYIRQLISAVEHLHRAGVVHRDLKIENLLLDEDNNIKLIDFGLSNCAGILGYSDPFSTQCGSPAYAAPELLARKKYGPKIDVWSIGVNMYAMLTGTLPFTVEPFSLRALYQKMVDKEMNPLPTQLSTGAISFLRSLLEPDPVKRPNIQQALANRWLNENYTGKVPCNVTYPNRISLEDLSPSVVLHMTEKLGYKNSDVINTVLSNRACHILAIYFLLNKKLERYLSGKSDIQDSLCYKTRLYQIEKYRAPKESYEASLDTWTRDLEFHAVQDKKPKEQEKRGDFLHRPFSKKLDKNLPSHKQPSGSLMTQIQNTKALLKDRKASKSSFPDKDSFGCRNIFRKTSDSNCVASSSMEFIPVPPPRTPRIVKKPEPHQPGPGSTGIPHKEDPLMLDMVRSFESVDRDDHVEVLSPSHHYRILNSPVSLARRNSSERTLSPGLPSGSMSPLHTPLHPTLVSFAHEDKNSPPKEEGLCCPPPVPSNGPMQPLGSPNCVKSRGRFPMMGIGQMLRKRHQSLQPSADRPLEASLPPLQPLAPVNLAFDMADGVKTQC
